Data published in paper doi:10.1101/2023.01.31.526442.
Results are given in words; binding and its absence hold for the method and conditions named. Binding seen in cells or lysates may run through a third protein. Some results given as binding are weak or reduced against the parent protein; the word gives no strength.

By UniProt entry, the sequences of proteins in these tests, tags left out.
UniProt O60260: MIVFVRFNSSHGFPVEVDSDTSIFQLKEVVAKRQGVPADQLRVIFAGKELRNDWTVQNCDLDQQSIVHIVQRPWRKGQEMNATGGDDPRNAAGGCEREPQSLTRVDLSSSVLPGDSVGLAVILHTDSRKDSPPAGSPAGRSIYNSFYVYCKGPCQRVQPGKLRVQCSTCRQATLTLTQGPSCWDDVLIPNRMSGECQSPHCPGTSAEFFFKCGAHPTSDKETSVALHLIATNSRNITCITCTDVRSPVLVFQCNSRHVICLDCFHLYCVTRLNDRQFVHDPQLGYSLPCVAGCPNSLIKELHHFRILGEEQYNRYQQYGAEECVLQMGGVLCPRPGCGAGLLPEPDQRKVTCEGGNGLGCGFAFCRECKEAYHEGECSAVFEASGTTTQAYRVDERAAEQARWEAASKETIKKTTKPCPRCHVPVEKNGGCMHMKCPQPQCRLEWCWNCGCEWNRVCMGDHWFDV
UniProt Q9BQQ3: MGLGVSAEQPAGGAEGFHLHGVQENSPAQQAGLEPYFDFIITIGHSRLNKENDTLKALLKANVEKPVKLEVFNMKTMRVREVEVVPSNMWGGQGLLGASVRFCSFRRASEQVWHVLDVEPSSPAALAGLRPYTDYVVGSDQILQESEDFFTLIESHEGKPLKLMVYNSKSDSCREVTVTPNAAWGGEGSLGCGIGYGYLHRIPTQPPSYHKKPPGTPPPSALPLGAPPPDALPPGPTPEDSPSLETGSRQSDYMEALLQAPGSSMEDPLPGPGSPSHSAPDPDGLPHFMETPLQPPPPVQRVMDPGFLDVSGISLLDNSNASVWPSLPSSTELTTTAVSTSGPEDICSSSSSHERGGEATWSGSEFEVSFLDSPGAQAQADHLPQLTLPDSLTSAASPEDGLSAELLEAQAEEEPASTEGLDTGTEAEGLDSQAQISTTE

Columns and labels:
[1] = target: YFP-Parkin, expressed in HeLa cells (UniProt O60260); test: proximity ligation
[2] = target: T1, GM130 (human (endogenous in HeLa)) (UniProt Q08379); test: proximity ligation
T1 sequence: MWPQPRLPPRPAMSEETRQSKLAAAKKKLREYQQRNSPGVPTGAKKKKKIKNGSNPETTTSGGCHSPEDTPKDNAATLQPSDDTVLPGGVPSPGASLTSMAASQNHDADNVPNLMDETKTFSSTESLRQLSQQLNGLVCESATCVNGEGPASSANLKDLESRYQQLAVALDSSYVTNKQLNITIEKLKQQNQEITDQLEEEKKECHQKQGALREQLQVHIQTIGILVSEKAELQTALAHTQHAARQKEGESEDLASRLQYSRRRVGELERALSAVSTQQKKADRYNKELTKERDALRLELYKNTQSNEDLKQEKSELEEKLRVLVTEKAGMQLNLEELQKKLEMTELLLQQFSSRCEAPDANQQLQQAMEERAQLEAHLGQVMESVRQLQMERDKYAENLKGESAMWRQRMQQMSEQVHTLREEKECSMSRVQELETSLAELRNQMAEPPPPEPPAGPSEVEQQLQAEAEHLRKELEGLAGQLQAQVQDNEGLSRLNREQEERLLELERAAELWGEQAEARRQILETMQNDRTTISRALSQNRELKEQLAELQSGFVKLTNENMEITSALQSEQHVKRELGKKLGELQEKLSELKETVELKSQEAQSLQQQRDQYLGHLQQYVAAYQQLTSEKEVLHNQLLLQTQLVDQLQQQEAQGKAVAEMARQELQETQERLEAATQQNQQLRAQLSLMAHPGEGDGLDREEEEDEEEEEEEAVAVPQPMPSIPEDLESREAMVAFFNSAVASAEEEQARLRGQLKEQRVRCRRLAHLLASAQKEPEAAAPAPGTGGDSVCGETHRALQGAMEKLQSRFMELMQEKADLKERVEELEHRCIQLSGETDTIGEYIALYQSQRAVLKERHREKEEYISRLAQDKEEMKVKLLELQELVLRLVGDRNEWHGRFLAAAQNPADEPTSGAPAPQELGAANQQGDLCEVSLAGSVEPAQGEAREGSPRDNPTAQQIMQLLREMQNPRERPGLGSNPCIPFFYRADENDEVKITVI

## GRASP65 (from UniProt Q9BQQ3 1-440)
[1]
  binding: no binding
[2]
  binding: binds
